The values below come from PubChem BioAssay AID493014 (National Center for Advancing Translational Sciences (NCATS), 2011).

The other results are listed elsewhere or left out. Shown are side measurements of this screen, not its main read-out; they come without a call. Most of these compounds were active or inconclusive in the main read-out, so they are no random draw. The note in brackets gives the kind of curve behind each potency; many fits are weak.

Broadly, the AC50 is the concentration at which the activity in the assay is half-maximal.

The assay can be described thus: qHTS Assay to Find Inhibitors of Chronic Active B-Cell Receptor Signaling. The following applies: ABC-DLBCL IkBa-CBG/CBR reporter, luminescence ratio (green luciferase fused to IkBa over red control in TMD8 lymphoma cells), 4 h. Summed up: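 Doxycycline induced both beetle luciferases in TMD8 lymphoma cells; IKK-driven degradation limits the IkappaBalpha-fused green signal, while red luminescence normalises for cell number and nonspecific effects. Compounds tested up to 46 uM, 4 hrs.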
(In general: Quantitative high-throughput screening tests each substance at several concentrations.)

[1] abbreviates: measured here: CBR red luminescence, cell number.
Where [2] appears, read: measured here: IkBa-CBG green luminescence.

Take `COc1ccccc1N(CC(=O)NCc1ccccc1C)S(=O)(=O)c1ccc(C)cc1`: the AC50 under setting [1] is 35.5 µM [falling, single point]. With `CN(CC1COCCO1)C(=O)c1cc(COc2c(F)cccc2F)on1` (stereo not drawn), under setting [1], the half-maximal activity concentration (AC50) was 20 µM [rising, partial curve, poor fit].

Regarding `Nc1c(-c2ccccc2)c(CN2CCOCC2)nn1-c1ccc(F)cc1`, the AC50 under setting [1] was 6.51 µM [rising, single point].

In the case of `Cc1ccc(NC(=O)C2C(c3ccccc3)C2(Cl)Cl)c(C)c1` (stereo not drawn), the AC50 under setting [1] is 2.06 µM [falling, partial curve, poor fit]. Take `CCS(=O)(=O)N1Cc2ccccc2CC1C(=O)Nc1ccc(F)c(F)c1F` (stereo not drawn): the half-maximal activity concentration (AC50) under setting [1] is 2.82 µM [falling, full curve]. With `Cc1cccc(OCc2nnc(SCc3nc4ccccc4c(=O)[nH]3)o2)c1`, the AC50 under setting [1] is 5.8 µM [rising, partial curve, poor fit]. Consider `O/N=C/c1ccccc1OCc1ccc(Cl)cc1`, for which the AC50 under setting [1] is 31.6 µM [falling, single point]. On the same count and under the same terms, in the case of `Cc1ccc(C(=O)/C=C/c2ccccc2[N+](=O)[O-])cc1` it was 17.8 µM [falling, single point]; in that of `O=C(CC1N=C2c3ccccc3N=C(SCc3cccc(Cl)c3)N2C1=O)NCc1ccc2c(c1)OCO2` (stereo not drawn), 12.6 µM [falling, partial curve, poor fit]; in that of `O=C(c1cc2nc(-c3ccco3)cc(C(F)(F)F)n2n1)N1CCN(c2ccccc2)CC1`, 25.9 µM [rising, single point]. The same measure, in the same setting: then `COc1cc(Nc2nc(SCC(=O)c3ccc(Br)cc3)nc3ccccc23)cc(OC)c1`, with 5.62 µM [falling, full curve, poor fit]; and `CN(CCOc1ccc(F)cc1)Cc1ccccc1`, with 22.4 µM [rising, single point]; and `N#C/C(=C\C1CC=CCC1)c1nc2ccccc2[nH]1` (stereo not drawn), with 35.5 µM [falling, single point]. The same measure, in the same setting: then `CCC(C)NCCOc1ccc(C)cc1[N+](=O)[O-]` (stereo not drawn), with 0.794 µM [rising, partial curve, poor fit]; and `CCOC(=O)c1sc(=S)n(-c2ccc(OC)cc2)c1C`, with 3.98 µM [rising, full curve, poor fit]. Regarding `O=C(NN=Cc1cccc([N+](=O)[O-])c1)c1cc(-c2cccnc2)nc2ccccc12`, under setting [1], the AC50 is 0.58 µM [rising, full curve, poor fit].

With `Cc1ccc(C)c(OCCNc2ccc([N+](=O)[O-])cn2)c1`, the AC50 under setting [1] is 1 µM [rising, partial curve, poor fit]. The same measure, in the same setting: in the case of `COc1ccc(CCC(=O)Nc2ccc(-c3noc(-c4ccc(OC)c(OC)c4)n3)cc2)cc1` it was 1.84 µM [rising, partial curve, poor fit].

For `CCOC(=O)c1ccc(N2C(=O)C=CC2=O)cc1`, the AC50 under setting [1] was 20.6 µM [falling, partial curve, poor fit]. In the case of `O=C(Nc1ccc(Cl)c(Cl)c1)N1CCSC1c1ccco1` (stereo not drawn), the AC50 under setting [1] is 35.5 µM [falling, single point]. Still for that read-out and setting: then `N#Cc1cc2ccccc2nc1SCc1ccccn1`, with 35.5 µM [falling, single point]; and `O=C(N/N=C/c1cn(CC(=O)N2CCOCC2)c2ccccc12)c1cccnc1`, with 22.4 µM [falling, single point]; and `N#C/C(=C(/O)C(Cl)(Cl)Cl)c1nc2ccccc2[nH]1`, with 11.2 µM [falling, single point]. The same measure, in the same setting: in the case of `COc1ccc(O)c(C(=O)CC(=O)c2ccccc2C)c1` it was 35.5 µM [falling, single point]; in that of `Cc1ccc2c(CN3CCN(S(=O)(=O)c4ccccc4C(F)(F)F)CC3)cc(=O)oc2c1C`, 0.651 µM [rising, full curve, poor fit]. The same measure, in the same setting: then `COc1ccc(S(=O)(=O)N2CCOC2CNC(=O)C(=O)NCCCn2ccnc2)cc1OC` (stereo not drawn), with 29.1 µM [rising, single point]; and `Cc1cc(-c2nnc(CCC(=O)N3CCN(Cc4cccc(F)c4)CC3)o2)c(C)o1`, with 35.5 µM [rising, partial curve, poor fit]; and `O=C(CC1CCCCC1)NCc1cn2ccsc2n1`, with 11.2 µM [rising, partial curve]. Take `Cc1c(/C=N\NC(=O)C2COc3ccccc3O2)c2ccccc2n1C` (stereo not drawn): the AC50 under setting [1] was 3.26 µM [rising, full curve] and the AC50 under setting [2] is 2.91 µM [falling, full curve]. Regarding `CCC(=O)Nc1ccc(SC#N)cc1C`, the AC50 under setting [1] was 20.6 µM [rising, partial curve] and the AC50 under setting [2] was 16.4 µM [falling, partial curve].

Take `CCc1ccc(OCCNC(=O)c2ccco2)cc1`: the half-maximal activity concentration (AC50) under setting [1] is 7.94 µM [rising, partial curve, poor fit].

On to `CCOC(=O)C1CCCN(C(=O)c2ccc(-c3ccc([N+](=O)[O-])cc3)o2)C1` (stereo not drawn), for which the AC50 under setting [1] is 23.1 µM [falling, single point]. As for `Cc1nc(N2CCN(C(=O)c3ccco3)CC2)c2c3c(sc2n1)CC(C)CC3` (stereo not drawn), the AC50 under setting [1] was 14.1 µM [falling, partial curve]. The same measure, in the same setting: then `O=C(N/N=C1\CC2CC=CC12)c1ccccc1Cl` (stereo not drawn), with 14.1 µM [falling, partial curve, poor fit]; and `Cc1onc(C(=O)Nc2ccc(OC(F)(F)F)cc2)c1[N+](=O)[O-]`, with 1.12 µM [rising, full curve, poor fit]. Still for that read-out and setting: in the case of `CCN(CC)c1ccc(-n2c(O)c(C=C3N=c4ccccc4=N3)sc2=S)cc1` it was 2.59 µM [falling, full curve]; in that of `O=C(/C=C/c1ccccc1)NC(=S)NNC(=O)c1cccnc1`, 14.1 µM [falling, partial curve].

On to `CCN(CC)C(=O)CCC(=O)Nc1ccc(C(=O)OC)cc1`, for which, under setting [1], the concentration at half-maximal activity (AC50) is 23.1 µM [falling, partial curve, poor fit]. The same measure, in the same setting: then `Clc1ccc(SCc2cn3cccnc3n2)cc1`, with 0.794 µM [rising, full curve, poor fit]; and `O=C(CCNC(=O)N1CCn2c1nc1ccccc12)NCc1ccccc1Cl`, with 35.5 µM [falling, single point]; and `O=C1c2ccccc2NC(c2cnc3ccccc3n2)N1O` (stereo not drawn), with 5.62 µM [falling, full curve].
